Drawing on article PMC11066113, this text covers binding for 1 substance.

Amino acid sequences for entries named in this document (tags omitted). A change or cut given only in a name is not applied to a line headed by its entry. Residues count along the entry.
UniProt Q9JLF7, residues 27-641: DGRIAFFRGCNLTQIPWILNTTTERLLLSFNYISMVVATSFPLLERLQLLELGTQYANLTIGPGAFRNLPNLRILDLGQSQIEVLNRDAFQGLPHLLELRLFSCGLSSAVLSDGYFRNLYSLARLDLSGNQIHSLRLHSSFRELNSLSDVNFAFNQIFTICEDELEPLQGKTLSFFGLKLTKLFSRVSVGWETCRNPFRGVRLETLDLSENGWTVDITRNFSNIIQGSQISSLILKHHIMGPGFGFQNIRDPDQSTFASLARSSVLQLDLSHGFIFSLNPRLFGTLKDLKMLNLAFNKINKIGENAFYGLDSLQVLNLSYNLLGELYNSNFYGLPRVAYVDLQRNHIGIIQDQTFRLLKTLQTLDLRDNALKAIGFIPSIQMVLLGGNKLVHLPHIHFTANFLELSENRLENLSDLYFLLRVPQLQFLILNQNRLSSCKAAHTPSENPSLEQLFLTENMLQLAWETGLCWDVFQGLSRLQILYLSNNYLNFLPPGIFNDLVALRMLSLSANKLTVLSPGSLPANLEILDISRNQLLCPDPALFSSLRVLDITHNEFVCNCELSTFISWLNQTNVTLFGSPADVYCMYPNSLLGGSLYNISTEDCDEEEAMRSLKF
UniProt Q9QUK6, residues 26-835: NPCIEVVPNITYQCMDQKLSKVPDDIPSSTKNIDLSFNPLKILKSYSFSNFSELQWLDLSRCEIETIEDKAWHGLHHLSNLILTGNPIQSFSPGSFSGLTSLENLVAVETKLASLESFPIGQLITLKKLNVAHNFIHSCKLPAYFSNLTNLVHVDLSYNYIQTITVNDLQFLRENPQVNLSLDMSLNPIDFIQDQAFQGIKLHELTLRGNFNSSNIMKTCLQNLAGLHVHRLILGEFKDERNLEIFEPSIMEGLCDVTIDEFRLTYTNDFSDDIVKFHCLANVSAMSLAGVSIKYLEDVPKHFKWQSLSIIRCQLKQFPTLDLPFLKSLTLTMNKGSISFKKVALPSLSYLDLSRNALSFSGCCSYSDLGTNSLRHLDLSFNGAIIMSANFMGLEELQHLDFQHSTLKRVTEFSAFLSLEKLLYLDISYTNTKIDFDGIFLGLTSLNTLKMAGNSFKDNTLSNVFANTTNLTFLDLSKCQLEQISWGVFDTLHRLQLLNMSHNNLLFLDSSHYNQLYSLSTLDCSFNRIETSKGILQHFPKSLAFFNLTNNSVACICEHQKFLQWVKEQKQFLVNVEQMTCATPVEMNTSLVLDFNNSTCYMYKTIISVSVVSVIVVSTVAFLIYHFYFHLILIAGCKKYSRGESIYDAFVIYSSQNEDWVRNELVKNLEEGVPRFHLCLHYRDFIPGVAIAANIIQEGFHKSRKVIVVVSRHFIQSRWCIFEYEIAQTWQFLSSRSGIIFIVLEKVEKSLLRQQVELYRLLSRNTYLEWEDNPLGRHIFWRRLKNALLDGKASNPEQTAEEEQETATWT
UniProt O00206, residues 24-839: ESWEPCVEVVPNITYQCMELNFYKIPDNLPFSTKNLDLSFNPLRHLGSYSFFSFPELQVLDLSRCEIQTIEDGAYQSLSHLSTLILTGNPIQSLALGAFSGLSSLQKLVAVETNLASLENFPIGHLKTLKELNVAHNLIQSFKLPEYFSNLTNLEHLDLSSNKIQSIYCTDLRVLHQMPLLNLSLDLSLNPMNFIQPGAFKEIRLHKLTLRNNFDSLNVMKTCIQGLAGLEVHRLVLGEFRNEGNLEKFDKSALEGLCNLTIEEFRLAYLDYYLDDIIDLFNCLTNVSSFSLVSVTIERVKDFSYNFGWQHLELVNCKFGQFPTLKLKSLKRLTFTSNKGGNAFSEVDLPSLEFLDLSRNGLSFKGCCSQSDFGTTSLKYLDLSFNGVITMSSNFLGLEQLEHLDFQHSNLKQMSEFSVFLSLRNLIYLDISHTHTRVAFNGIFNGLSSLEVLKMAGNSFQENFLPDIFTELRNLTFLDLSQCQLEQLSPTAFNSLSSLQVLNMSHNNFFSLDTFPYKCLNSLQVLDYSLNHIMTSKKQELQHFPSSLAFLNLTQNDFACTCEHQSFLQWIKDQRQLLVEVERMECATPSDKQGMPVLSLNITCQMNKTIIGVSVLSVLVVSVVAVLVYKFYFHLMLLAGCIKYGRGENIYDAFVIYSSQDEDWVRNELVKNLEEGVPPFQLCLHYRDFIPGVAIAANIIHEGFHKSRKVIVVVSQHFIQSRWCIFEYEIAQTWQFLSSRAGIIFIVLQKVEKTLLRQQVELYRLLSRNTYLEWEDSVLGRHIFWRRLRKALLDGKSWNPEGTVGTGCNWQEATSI
UniProt Q172F2: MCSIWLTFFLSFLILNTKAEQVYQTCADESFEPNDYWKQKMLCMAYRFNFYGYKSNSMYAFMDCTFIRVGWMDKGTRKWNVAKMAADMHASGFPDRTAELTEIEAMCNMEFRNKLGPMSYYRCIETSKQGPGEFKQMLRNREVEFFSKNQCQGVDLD

These are yes or no findings as the source states them, for the method shown. For part of these data: Binding calls can cover weak binding; strength is not graded here. For part of these data: Binding seen in cells or lysates may run through a third protein.

In test [1] the target is murine Toll-like receptor 5 extracellular domain (mouse) (UniProt Q9JLF7). Nature of the test: co-IP; lysate of HEK293T cells transfected with a Myc-tagged TLR ECD incubated with 80 ng purified V5-tagged AaNRP at 4 °C, precipitated with anti-Myc tag antibody (magnetic beads), five washes with IP lysis buffer, blots for V5 and Myc; only the binder purified.
Test [2] deals with T1, human TLR10 extracellular domain (human) (UniProt Q9BXR5).
T1 sequence: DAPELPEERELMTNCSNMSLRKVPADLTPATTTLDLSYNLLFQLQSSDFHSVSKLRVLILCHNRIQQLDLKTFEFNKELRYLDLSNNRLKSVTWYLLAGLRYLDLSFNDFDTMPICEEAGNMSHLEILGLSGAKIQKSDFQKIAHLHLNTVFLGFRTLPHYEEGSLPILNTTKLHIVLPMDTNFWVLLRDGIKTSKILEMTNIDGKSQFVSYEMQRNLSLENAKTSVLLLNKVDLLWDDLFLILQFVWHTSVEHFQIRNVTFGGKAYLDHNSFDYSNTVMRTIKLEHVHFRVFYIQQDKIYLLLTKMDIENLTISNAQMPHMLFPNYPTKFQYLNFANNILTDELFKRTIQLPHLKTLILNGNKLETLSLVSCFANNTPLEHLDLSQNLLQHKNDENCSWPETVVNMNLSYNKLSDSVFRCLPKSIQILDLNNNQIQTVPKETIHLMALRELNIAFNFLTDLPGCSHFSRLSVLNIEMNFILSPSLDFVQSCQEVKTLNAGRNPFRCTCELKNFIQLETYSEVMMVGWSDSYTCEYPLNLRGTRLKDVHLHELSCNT
The test is described as above.

Test [3] addresses T2, murine TLR1 (on transfected HEK293T cells) (mouse) (UniProt Q9EPQ1).
T2 sequence: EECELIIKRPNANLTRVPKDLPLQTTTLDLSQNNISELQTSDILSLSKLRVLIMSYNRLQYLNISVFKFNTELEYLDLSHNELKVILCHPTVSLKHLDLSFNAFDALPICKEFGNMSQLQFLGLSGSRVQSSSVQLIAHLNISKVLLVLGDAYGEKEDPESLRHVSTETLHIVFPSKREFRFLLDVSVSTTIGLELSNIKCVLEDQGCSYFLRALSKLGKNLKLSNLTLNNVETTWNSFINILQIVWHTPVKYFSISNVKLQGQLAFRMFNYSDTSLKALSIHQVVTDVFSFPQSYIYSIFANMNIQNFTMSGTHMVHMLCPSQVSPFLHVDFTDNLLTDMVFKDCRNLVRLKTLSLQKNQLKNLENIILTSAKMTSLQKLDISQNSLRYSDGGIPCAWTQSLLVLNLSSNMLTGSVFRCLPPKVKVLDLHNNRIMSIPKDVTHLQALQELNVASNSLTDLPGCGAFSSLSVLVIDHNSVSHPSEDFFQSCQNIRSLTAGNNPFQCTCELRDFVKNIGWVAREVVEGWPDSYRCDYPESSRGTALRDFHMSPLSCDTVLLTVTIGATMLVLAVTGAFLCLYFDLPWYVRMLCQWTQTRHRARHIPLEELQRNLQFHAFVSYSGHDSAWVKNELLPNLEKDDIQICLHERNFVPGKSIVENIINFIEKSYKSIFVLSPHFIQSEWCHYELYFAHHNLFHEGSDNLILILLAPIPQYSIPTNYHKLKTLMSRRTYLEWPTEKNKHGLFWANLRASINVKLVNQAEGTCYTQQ
Nature of the test: flow cytometry on cells; HEK293T cells transfected with TLR or vector plasmids incubated with AaNRP (1 μg/10^6 cells) at 4 °C for 2 h; detected with anti-AaNRP polyclonal antibody and PE-labeled secondary antibody; proportion of PE+ cells, vector control deducted; only the binder purified. (A flow cytometer gives signals particle by particle.)

In test [4] the target is murine TLR4 (on transfected HEK293T cells) (mouse) (UniProt Q9QUK6). The description is as above.
Test [5] has as its target T3, human TLR1 (on transfected HEK293T cells) (human) (UniProt Q15399).
T3 sequence: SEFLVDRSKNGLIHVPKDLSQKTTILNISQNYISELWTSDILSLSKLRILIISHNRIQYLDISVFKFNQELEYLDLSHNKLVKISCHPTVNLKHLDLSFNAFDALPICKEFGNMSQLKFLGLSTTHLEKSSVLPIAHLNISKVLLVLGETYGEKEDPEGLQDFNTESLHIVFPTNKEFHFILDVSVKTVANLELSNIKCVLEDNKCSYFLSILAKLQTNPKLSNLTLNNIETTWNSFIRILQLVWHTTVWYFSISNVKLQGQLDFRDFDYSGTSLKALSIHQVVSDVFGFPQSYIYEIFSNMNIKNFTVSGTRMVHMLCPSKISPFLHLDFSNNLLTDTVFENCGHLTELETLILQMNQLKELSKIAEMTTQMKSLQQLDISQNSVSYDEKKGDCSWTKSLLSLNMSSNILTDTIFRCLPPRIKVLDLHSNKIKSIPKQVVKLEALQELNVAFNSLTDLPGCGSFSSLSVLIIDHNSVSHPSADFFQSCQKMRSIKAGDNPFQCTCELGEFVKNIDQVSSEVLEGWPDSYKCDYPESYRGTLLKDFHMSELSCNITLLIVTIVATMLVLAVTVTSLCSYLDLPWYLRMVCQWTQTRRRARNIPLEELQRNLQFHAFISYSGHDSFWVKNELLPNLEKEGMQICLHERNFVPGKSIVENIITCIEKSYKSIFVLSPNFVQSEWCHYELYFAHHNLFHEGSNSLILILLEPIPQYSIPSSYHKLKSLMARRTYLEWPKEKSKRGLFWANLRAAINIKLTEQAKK
The description is as above.

The target in test [6] is human TLR4 (on transfected HEK293T cells) (human) (UniProt O00206). The test is described as above.

For “A. aegypti Neutrophil Recruitment Protein (AaNRP) (from UniProt Q172F2)”, the binding result is “no binding (tested: 80 ng of purified AaNRP)” in test [1]; “no binding (tested: 80 ng of purified AaNRP)” in test [2]; “binds” in test [3]; “binds” in test [4]; “binds” in test [5]; “binds” in test [6].
